No constants are given. Whether binding was seen depends on the method and setting. Values belong to the molecule of their own block, whether it stands above or below them.
How the values were obtained:
[1] = target: T1, ARMS2 peptide 1 (amino acids 1 to 40) (human) (UniProt P0C7Q2); test: ELISA; ARMS2 peptides 1, 2, 3 (each 500 nM) coated on the plate; 2 uM properdin (TECOmedical) in PBS; detected with monoclonal properdin antibody; both purified
T1 sequence (peptide): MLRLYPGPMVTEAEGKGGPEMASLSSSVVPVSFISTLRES

Sequences of proteins named here, by UniProt entry; tags and fusion partners are left off. Residues count along the entry.
UniProt P01024, residues 1002-1303: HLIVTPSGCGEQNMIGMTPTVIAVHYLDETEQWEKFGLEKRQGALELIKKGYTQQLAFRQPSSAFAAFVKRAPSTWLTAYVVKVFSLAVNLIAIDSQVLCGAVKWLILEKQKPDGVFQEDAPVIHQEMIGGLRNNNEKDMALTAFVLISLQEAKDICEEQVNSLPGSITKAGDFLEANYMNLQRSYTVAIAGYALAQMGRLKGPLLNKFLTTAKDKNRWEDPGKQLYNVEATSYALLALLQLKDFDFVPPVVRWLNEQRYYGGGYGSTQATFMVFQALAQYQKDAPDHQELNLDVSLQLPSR
UniProt P27918, residues 28-469: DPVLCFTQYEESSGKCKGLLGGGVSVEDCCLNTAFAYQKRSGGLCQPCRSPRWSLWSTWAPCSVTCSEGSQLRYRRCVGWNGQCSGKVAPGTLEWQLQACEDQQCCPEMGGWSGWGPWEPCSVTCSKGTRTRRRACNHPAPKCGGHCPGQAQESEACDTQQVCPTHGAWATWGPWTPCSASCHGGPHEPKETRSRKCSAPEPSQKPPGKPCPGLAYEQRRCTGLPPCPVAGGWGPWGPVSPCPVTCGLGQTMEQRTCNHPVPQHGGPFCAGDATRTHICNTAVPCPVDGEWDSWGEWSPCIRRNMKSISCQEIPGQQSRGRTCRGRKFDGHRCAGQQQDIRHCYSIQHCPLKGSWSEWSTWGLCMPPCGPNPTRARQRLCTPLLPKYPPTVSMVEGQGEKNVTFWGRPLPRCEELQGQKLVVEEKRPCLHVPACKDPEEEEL

[2] = target: T2, ARMS2 peptide 2 (amino acids 41 to 70) (human) (UniProt P0C7Q2); test: as above
T2 sequence (peptide): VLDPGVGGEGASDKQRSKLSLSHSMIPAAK

[3] = target: C3d (UniProt P01024); test: ELISA; complement proteins (each 500 ng in PBS) coated on MediSorp plates; 500 ng ARMS2 in 2% BSA, 0.05% Tween-20 in PBS, 1 h RT; ARMS2 detected with ARMS2 antiserum; both purified

binding [1]: no binding (tested: 2 μM properdin) | binding [2]: no binding (tested: 2 μM properdin)
Molecule: properdin (from UniProt P27918 28-469)

binding [3]: no binding (tested: 500 ng ARMS2)
B1: recombinant ARMS2 (age-related maculopathy susceptibility 2) (natural protein, human, UniProt P0C7Q2 1-107, looked up)
chain: MLRLYPGPMVTEAEGKGGPEMASLSSSVVPVSFISTLRESVLDPGVGGEGASDKQRSKLSLSHSMIPAAKIHTELCLPAFFSPAGTQRRFQQPQHHLTLSIIHTAAR
notes: ARMS2, human, codon usage optimized full length cDNA; Glycosylated in P. pastoris (17 and 15 kDa bands); also called His-tagged ARMS2; rARMS2

— article PMC5234120, “Age-related macular degeneration associated polymorphism rs10490924 in ARMS2 results in deficiency of a complement activator” (Journal of Neuroinflammation, 2017)
